Assay results

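A cell-based luciferase reporter for ATXN2 expression, read by light output at 24 h, with a viability multiplex.
Compounds were tested as a dilution series from about 0.0037 to 57 µM.
The number is the fitted half-maximal inhibitory concentration (AC50); a lower value means a more potent inhibitor.
Calls come from curve class and activity score: actives score 40–100, while inconclusive compounds (weak, partial, poorly fitted or single-point curves) score 1–39.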

Values are in µM.
Every entry below has the call inconclusive.
These entries are mostly ones the record files as inconclusive; other results of the assay are not listed here.
A potency from a partial, single-point or poor curve is only a rough figure.
Activity scores are not listed here.

| compound | Potency (µM) | remark |
|---|---|---|
| `CCOC(=O)N1CCC(c2cc(=O)n3[nH]c(C)c(-c4ccc(F)cc4)c3n2)CC1` | 28.18 | inhibitor, single point |
| `CC(C)(C)c1cc(C(=O)NNc2cc(C(F)(F)F)ccc2Cl)n(Cc2ccccc2)n1` | 39.81 | inhibitor, single point |
| `COC(=O)c1c(NC(=O)/C=C/C(=O)O)sc(C)c1-c1ccc(C(C)C)cc1` | 22.39 | inhibitor, partial curve, poor fit |
| `Oc1ccc(Cl)cc1Sc1cc(Cl)ccc1O` | 14.13 | inhibitor, partial curve, poor fit |
| `CCOC(=O)C1=CCN(S(=O)(=O)c2ccc(C)cc2)C1c1cccc(Cl)c1` (centres unmarked) | 15.85 | inhibitor, single point |
| `Cc1cccc2[nH]c3c(N4CC=C(c5ccc(F)cc5)CC4)ncnc3c12` | 28.18 | inhibitor, partial curve, poor fit |
| `COc1ccc(NC2=NCC(Cc3ccc(Br)cc3)S2)cc1` (centres unmarked) | 2.512 | inhibitor, partial curve |
| `COc1cc(C#Cc2c(-c3cncn3C)n(C)c3ccc(-c4ccc(OC)nc4)cc23)cc(OC)c1` | 35.48 | inhibitor, single point |
| `O=C(N/N=C/c1c(O)ccc2ccccc12)c1ccc(CO)nc1` | 3.162 | inhibitor, full curve, poor fit |
| `C=CCOC(=O)C1=C(C)NC(SCC)=C(C#N)C1c1ccc(Cl)cc1` (centres unmarked) | 11.22 | inhibitor, partial curve, poor fit |
| `CN(/N=C/c1cc(Br)cc(Br)c1O)c1cccc(C(F)(F)F)n1` | 25.12 | inhibitor, partial curve, poor fit |
| `O=C(Nc1cccc(S(=O)(=O)c2cccc(NC(=O)c3ccco3)c2)c1)c1ccco1` | 15.85 | inhibitor, partial curve, poor fit |
| `COc1ccc(C(=O)NNC(=S)NC(=O)C(C)(C)C)cc1` | 14.13 | inhibitor, partial curve, poor fit |
| `CCOc1cccc(/C=N/NC(=O)C2CCCC2)c1O` | 31.62 | inhibitor, single point |
| `COc1cc([N+](=O)[O-])cc(/C=N/NC(=O)C(C)Nc2cccc3ccccc23)c1O` (centres unmarked) | 3.162 | inhibitor, single point |
| `COc1ccc(/C=C2/CSC/C(=C/c3ccc(OC)c(OC)c3)C2=O)cc1OC` | 7.943 | inhibitor, full curve, poor fit |
| `Cn1c(SCc2ccc(C(C)(C)C)cc2)nnc1C1COc2ccccc2O1` (centres unmarked) | 3.162 | inhibitor, single point |
| `CC(=O)Nc1ccc(CNc2nc(NC(C)C)nc3cc(-c4ccccc4)sc23)cc1` | 31.62 | inhibitor, single point |
| `S=C(NCc1ccc(Cl)cc1Cl)NC1CCCCC1` | 8.912 | inhibitor, single point |
| `Cc1cc(C)c2c(c1)/C(=C/C(=O)c1ccc(Br)s1)C(=O)N2` | 3.548 | inhibitor, single point |
| `CC(O)CNCCNCc1c(OCc2ccccc2)ccc2ccccc12` (centres unmarked) | 17.78 | inhibitor, partial curve, poor fit |
| `OCC1(CCOc2ccccc2)CCN(CC2=Cc3cc(Cl)ccc3OC2)CC1` | 19.95 | inhibitor, partial curve, poor fit |
| `COc1cc2c(cc1OC)C1C(=O)c3ccc4c(c3OC1CO2)CC(C(C)C)O4` (centres unmarked) | 3.162 | inhibitor, partial curve, poor fit |
| `Cc1nc2c(OCc3cccc(Cl)c3)cccn2c1N(C)Cc1cccs1` | 35.48 | inhibitor, single point |
| `O=C(NC1C=CS(=O)(=O)C1)c1sc2ccccc2c1Cl` (centres unmarked) | 3.162 | inhibitor, single point |
| `C=Cc1cc(OC)c2c(c1)c(=O)oc1c2cc(OC)c2c(O)ccc(C3OC(C)C(O)C(C)(O)C3O)c21` (centres unmarked) | 2.818 | inhibitor, full curve, poor fit |
| `CC(C)n1ncc2c(C(=O)N3CCN(Cc4ccc(Br)s4)CC3)cc(C3CC3)nc21` | 3.162 | inhibitor, single point |
| `Cc1ccc(NC(=O)CNC(=O)c2cccc(C)c2)nc1` | 22.39 | inhibitor, partial curve, poor fit |
| `N#C/C(=C(/O)COC(=O)CSc1ccc(Cl)cc1)c1nc2ccccc2[nH]1` | 17.78 | inhibitor, single point |
| `Cc1cccc(N(CC(O)CON=C2c3ccccc3-c3ccccc32)S(C)(=O)=O)c1` (centres unmarked) | 31.62 | inhibitor, single point |
| `Cc1nn(Cc2c(F)c(F)c(F)c(F)c2F)c(C)c1NC(=O)c1ccc(COc2ccc(Cl)cc2Cl)o1` | 17.78 | inhibitor, partial curve, poor fit |
| `CC(C)[C@H](NC(=O)c1ccc(C(C)(C)C)cc1)C(=O)N1CCN(Cc2ccc3c(c2)OCO3)CC1` | 17.78 | inhibitor, partial curve, poor fit |
| `CN(C)CCCN(C(=O)c1ccc(S(=O)(=O)N2CCCC2)cc1)c1nc2ccc(Br)cc2s1` | 31.62 | inhibitor, partial curve, poor fit |
| `COc1ccc(-n2cc(CN(C)C(C)c3ccncn3)c(-c3cccc(F)c3)n2)cc1` (centres unmarked) | 31.62 | inhibitor, single point |
| `Cc1ccc(NC(=O)COc2ccc(Br)cc2CO)cc1S(=O)(=O)N1CCOCC1` | 17.78 | inhibitor, partial curve, poor fit |
| `CCN(CC)CCn1nc2c3c(cccc3c1=O)-c1ccccc1-2` | 10 | inhibitor, partial curve, poor fit |

2 of the entries, repeated:

* O=C(N/N=C/c1c(O)ccc2ccccc12)c1ccc(CO)nc1 : Potency 3.162 µM (inhibitor, full curve, poor fit)
* COc1cc2c(cc1OC)C1C(=O)c3ccc4c(c3OC1CO2)CC(C(C)C)O4 (centres unmarked) : Potency 3.162 µM (inhibitor, partial curve, poor fit)

From PubChem BioAssay record AID1745848 (NCATS, 2022).